Measurements reported in the supplement of paper PMC10735217.
Where a name gives a salt, the structure may show the parent alone. The list shows a part of the results. This data set is noisy: repeats of one test often differ as much as different tests do.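 The human kidney-derived cells carry a stably integrated construct of eight TEAD-binding elements driving luciferase, read by luminescence in a drug-repurposing library screen. A compound counts as a hit when its signal is more than five robust Z scores above the plate mean.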

Test system: HEK293A TEAD-LUC reporter
Assay: TEAD-luciferase reporter activity (YAP activation), robust Z score vs plate; higher = stronger YAP/TEAD activation
Settings: 24 h

Row | SMILES | TEAD-luciferase reporter activity (compound concentration: 200 nM) | TEAD-luciferase reporter activity (compound concentration: 2 uM) | TEAD-luciferase reporter activity (compound concentration: 10 uM)
1 | CCN(CC)c1nc(NN)nc(N(CC)CC)n1 | inactive: 0.232 | inactive: 0.227 | inactive: 1.2
2 | CO/N=C(\C(=O)N[C@@H]1C(=O)N2C(C(=O)OCOC(=O)C(C)(C)C)=C(C)CS[C@H]12)c1csc(N)n1 [Cefetamet pivoxil (hydrochloride)] | inactive: -0.828 | inactive: 0.329 | inactive: 1.69
3 | CCC(=O)O[C@]1(C(=O)SCF)[C@H](C)CC2C3C[C@H](F)C4=CC(=O)C=C[C@]4(C)[C@@]3(F)[C@@H](O)C[C@@]21C (stereo partly drawn) [Fluticasone propionate] | inactive: 0.524 | inactive: 0.325 | inactive: 2.34
4 | CC(C)(CCc1ccc(C(N)=O)cc1)NC[C@H](O)c1ccccc1 | inactive: -0.365 | inactive: -0.888 | active: 8.19
5 | C#CCOc1ccc2c(c1)c(-c1ccc(C(C)C)cc1)nc(=O)n2Cc1ccc(Br)cc1 | inactive: 3.49 | inactive: 1.91 | inactive: 4.36
6 | CC1(C)C=C(c2cccc[n+]2[O-])c2cc(Cl)c(Cl)cc2OC1 | inactive: -1.78 | inactive: -0.328 | inactive: -0.249
7 | O=C(O)c1ccc([C@@H]2C[C@H]2c2ccc(OCc3c(-c4c(Cl)cccc4Cl)noc3C3CC3)cc2Cl)cc1 | inactive: -0.835 |  | inactive: -0.179
8 | Cc1ccccc1N1CCN(C2CCc3ccccc3C2)CC1 (stereo not drawn) | inactive: -0.578 | inactive: 0.171 | inactive: -0.519
9 | CCCC(=O)NCCCCNC(=O)CCC | inactive: -0.977 | inactive: -0.813 | inactive: 0.717
10 | CC(=O)NC[C@H]1CN(c2ccc(-c3ncc(C#N)s3)c(F)c2)C(=O)O1 | inactive: -0.508 | inactive: 4.17 | active: 6.17
11 | CC(C)(CO)NCC(=O)N1C[C@@H](F)C[C@H]1C(=O)c1nnc(C(C)(C)C)o1 | inactive: -1.85 | inactive: -0.615 | inactive: -0.366
12 | CC(C(=O)O)c1ccc2c(c1)CC(=O)c1ccccc1S2 (stereo not drawn) [zaltoprofen] | inactive: -1.38 | inactive: -1.55 | inactive: 2.07
13 | O=C1NC2(CCN(CC3CC3)CC2)Oc2ccccc21 | inactive: -0.622 |  | inactive: 3.26
14 | CCCCC1C(=O)N(CC2CCNCC2)CC2N(C(=O)CCc3c[nH]c4ccccc34)CCC(=O)N12 (stereo not drawn) | inactive: -0.675 | inactive: -0.556 | inactive: 4.79
15 | O=c1cc(-c2ccccc2)n(-c2ccccc2)n1CCCN1CCN(c2ccccn2)CC1 [revenast] | inactive: 1.76 | inactive: 0.46 | inactive: -0.135
16 | CC(C)(C)N1CCC(c2ccccc2)(c2ccccc2)CC1 [Budipine hydrochloride] | inactive: -1.18 | inactive: -0.106 | inactive: 1.17
17 | CCOc1nc2cccc(C(=O)O)c2n1Cc1ccc(-c2ccccc2-c2nnn[nH]2)cc1 [Candesartan] | inactive: -1.34 |  | inactive: 0.914
18 | CCOc1nc2cccc(C(=O)O)c2n1Cc1ccc(-c2ccccc2-c2nnn[nH]2)cc1 [Pharmaprojects No. 3549] |  | inactive: -2 | 
19 | CC[C@H](C)[C@H](NC(=O)[C@H](Cc1ccccc1)NC(=O)[C@H](CCC(=O)O)NC(=O)[C@H](CCCCN)NC(=O)[C@H](C)NC(=O)[C@H](C)NC(=O)[C@H](CCC(N)=O)NC(=O)CNC(=O)[C@H](CCC(=O)O)NC(=O)[C@H](CC(C)C)NC(=O)[C@H](Cc1ccc(O)cc1)NC(=O)[C@H](CO)NC(=O)[C@H](CO)NC(=O)[C@@H](NC(=O)[C@H](CC(=O)O)NC(=O)[C@H](CO)NC(=O)[C@@H](NC(=O)[C@H](Cc1ccccc1)NC(=O)[C@@H](NC(=O)CNC(=O)[C@H](CCC(=O)O)NC(=O)[C@H](C)NC(=O)[C@@H](N)Cc1c[nH]cn1)[C@@H](C)O)[C@@H](C)O)C(C)C)C(=O)N[C@@H](C)C(=O)N[C@@H](Cc1c[nH]c2ccccc12)C(=O)N[C@@H](CC(C)C)C(=O)N[C@H](C(=O)N[C@@H](CCCCN)C(=O)NCC(=O)N[C@@H](CCCNC(=N)N)C(=O)NCC(=O)O)C(C)C | inactive: -0.844 | inactive: -0.877 | inactive: 0.893
20 | Cc1nc(C)c(N(C)C)nc1C | inactive: -1.39 | inactive: 0.238 | inactive: 0.448
21 | COc1ccc2c(c1)c(OC(C)C)c(C(=O)Nc1nnn[nH]1)n2-c1ccccc1 | inactive: -1.92 | inactive: -1.52 | inactive: 0.263
22 | CSCC[C@H](N)C(=O)O [Methionine] | inactive: -0.761 | inactive: -0.0272 | inactive: -1.38
23 | NC(N)=NS(=O)(=O)c1ccc(N)cc1 | inactive: -1.5 | inactive: -1.75 | inactive: 0.63
24 | CC(C)CC(NC(=O)C(CCC(N)=O)NC(=O)C(CC(C)C)NC(=O)C(Cc1c[nH]c2ccccc12)NC(=O)C(Cc1cnc[nH]1)NC(=O)C(N)Cc1c[nH]c2ccccc12)C(=O)O (stereo not drawn) | inactive: -0.475 | inactive: -0.422 | inactive: 1.38
25 | N=C(N)c1ccc(CNC(=O)[C@@H]2CCN2C(=O)[C@H](NCC(=O)O)C2CCCCC2)cc1 [melagatran] | inactive: 0.241 | inactive: 1.37 | inactive: -1.93
26 | CCNC(=O)[C@@H]1CCCN1C(=O)[C@H](CCCNC(=N)N)NC(=O)[C@H](CC(C)C)NC(=O)[C@H](NC(=O)[C@H](Cc1ccc(O)cc1)NC(=O)[C@H](CO)NC(=O)[C@H](Cc1c[nH]c2ccccc12)NC(=O)[C@H](Cc1c[nH]cn1)NC(=O)[C@@H]1CCC(=O)N1)C(C)(C)C [Lecirelin] | inactive: 3.76 | inactive: -1.28 | inactive: -1.19
27 | CC(C)[C@@H]1C(=O)N(S(C)(=O)=O)[C@@H]2CCN(C(=O)/C=C/CN3CCCCC3)[C@H]21 | inactive: 0.0764 | inactive: -1.09 | inactive: -1.64
28 | CCc1ccc2c(-c3cncc(C)c3)cc(COC)nn12 | inactive: -0.233 |  | inactive: -0.278

Reprinted at random: 2 records from the list.
Row | SMILES | TEAD-luciferase reporter activity (compound concentration: 200 nM) | TEAD-luciferase reporter activity (compound concentration: 2 uM) | TEAD-luciferase reporter activity (compound concentration: 10 uM)
12 | CC(C(=O)O)c1ccc2c(c1)CC(=O)c1ccccc1S2 (stereo not drawn) [zaltoprofen] | inactive: -1.38 | inactive: -1.55 | inactive: 2.07
22 | CSCC[C@H](N)C(=O)O [Methionine] | inactive: -0.761 | inactive: -0.0272 | inactive: -1.38
